Results on 6 molecules are retold here after publication doi:10.1101/2024.05.31.596839.

The target in assay [1] is BoYb CS domain (Drosophila). In words: ReLo.
In assay [2] the target is SoYb NTD (Drosophila). Put plainly: ReLo.
Assay [3] addresses BoYb NTD (Drosophila). Put plainly: ReLo.
The target in assay [4] is Qin (Drosophila). In words: ReLo.
Assay [5] deals with Tapas (Drosophila). Put plainly: ReLo.
Assay [6] concerns the target Tejas eTudor domain (aa 334-559) (Drosophila). In words: ReLo.
Assay [7] addresses Tejas (Drosophila). Put plainly: ReLo.
Assay [8] addresses Tejas (Drosophila). In words: ReLo. This is another data set of the same source.
Assay [9] deals with Daedalus (Drosophila). Put plainly: ReLo.
Assay [10] addresses Yb C-terminal portion (aa 335-1042) (Drosophila). Put plainly: ReLo.
Assay [11] deals with GST-Tejas (Drosophila). Put plainly: pull-down.

Like-named read-outs stand apart in the source and are kept apart here. No constants are given. Whether binding was seen depends on the method and setting. For some assays here: Binding can be weak; no strength is given. For some assays here: Tags and fused reporters may be left off the sequences shown.

B1: Vret-C (domain or fragment, UniProt Q9VCU7 178-691)
chain: FRPPLVTKDDYKRGSLLATNDPIQRYLNVKYEFALERHDIYKLKDETRIPQVVLHFRSGRTIPLSTVAVTEEDKTKSLLEDGVSKCVVCQNWTDTFCKLCKMPFCNASCFADVAEQHKQACGKGEILNLDEKVGRKYPKPGLPPSGSKVRITAFEQTNVVYVRSADIQIDIAYYTVLTEVMMLGKDASKLQSTPVCGQIVLYKFEGHMSRAMVLNVDNIKEIYVVFIDFGSVEVTQLERLYECSSYLAGLTCYPVAVKLRGVPRRFVGPNIREVMYELDQSLVFNIKYSSREYDTSKGMQVVVMTEIDINRSLNRLFKTILTPVEPSVSDLGYKEDCLPYIPLHCGKNINVVVMDNTFIQCGFIYCTSIDLAYEVTKMQRDIQEYGEKIAKCATYAPPINELCIAKYEGKWRRGLSVELVGDGYPSILFIDYGNIVPTHVTDIRPYPPQFIFPIMTTQLDLIGVPEKPTDEQIKWLDKNYPIGSVITCSEITFDEETNSYSTRIEKLQEFLSLD
On to B1, for which the binding result in assay [1] was “binds”.

B2: Vret-N (domain or fragment, UniProt Q9VCU7 1-178)
chain: MESESSQDDWSAFDPMSREYYDQVGNRYTNESGQKLIMEAPLPPKDEKEQRATRQAKYPYLVVPKSSPYVTEKMLINFFGRALIKEMEFRRLSRVYFVYFENIASLETAQQRVQRYPNLIKCITGRPQKEREITSDPVTSTEPMPTPGPAISATERTPVNHNREVPISTGGQNHPEFF
Take B2: the binding entry in assay [2] and in assay [3] was “binds” each time.

B3: Piwi (protein, UniProt Q9VKM1 1-843)
chain: MADDQGRGRRRPLNEDDSSTSRGSGDGPRVKVFRGSSSGDPRADPRIEASRERRALEEAPRREGGPTERKPWGDQYDYLNTRPAELVSKKGTDGVPVMLQTNFFRLKTKPEWRIVHYHVEFEPSIENPRVRMGVLSNHANLLGSGYLFDGLQLFTTRKFEQEITVLSGKSKLDIEYKISIKFVGFISCAEPRFLQVLNLILRRSMKGLNLELVGRNLFDPRAKIEIREFKMELWPGYETSIRQHEKDILLGTEITHKVMRTETIYDIMRRCSHNPARHQDEVRVNVLDLIVLTDYNNRTYRINDVDFGQTPKSTFSCKGRDISFVEYYLTKYNIRIRDHNQPLLISKNRDKALKTNASELVVLIPELCRVTGLNAEMRSNFQLMRAMSSYTRMNPKQRTDRLRAFNHRLQNTPESVKVLRDWNMELDKNVTEVQGRIIGQQNIVFHNGKVPAGENADWQRHFRDQRMLTTPSDGLDRWAVIAPQRNSHELRTLLDSLYRAASGMGLRIRSPQEFIIYDDRTGTYVRAMDDCVRSDPKLILCLVPNDNAERYSSIKKRGYVDRAVPTQVVTLKTTKNRSLMSIATKIAIQLNCKLGYTPWMIELPLSGLMTIGFDIAKSTRDRKRAYGALIASMDLQQNSTYFSTVTECSAFDVLANTLWPMIAKALRQYQHEHRKLPSRIVFYRDGVSSGSLKQLFEFEVKDIIEKLKTEYARVQLSPPQLAYIVVTRSMNTRFFLNGQNPPPGTIVDDVITLPERYDFYLVSQQVRQGTVSPTSYNVLYSSMGLSPEKMQKLTYKMCHLYYNWSGTTRVPAVCQYAKKLATLVGTNLHSIPQNALEKKFYYL
Turning to B3, the binding result in assay [4] was “no binding”.

B4: Krimper (protein, UniProt A1ZAC4 1-746)
chain: MNLEDISMIMKLFDSNMHKLQGNLRSYQTEMHQIHKELTEKLSHADLLYRSLIPLHDHLVASLSEVNAHVMKLNVQLHINRQSVRLGDYEYYEKSIDNPYSSIRSGLQAIEKPGCAEAICQSSKPAFVECLPSSTSEEVPVVAVQEASSTNQLDAISVVNENLSEERDATPQPLAVSKNMEETMPSNPFHEQLEGSLEEIPVGSKIVVETEKANNPVRSEASAPATSDNQSLLAAKQGTQTIGTGICNKISKSTINMPNNWQLENPTEVTAASIEKVNKLPKSPRNRFLLPPKGGTETTRRDIYNQILKDMAAFPENTIVTAVLASVDVTDNCAYVAKWDESSDRIKKVLQRQLPLQELDQLPDYGDIFAVLDSINNIITRITINSSSAGGGYDAYLIDFGEHIHFDGNETIFKLPDDIKRLPAQAIRCDLINCDIANMHCFVNTYIKIRVHENNNSTLVAEPVIDRLSRPTKTNTTKYPAGITEDDMAMLNEIDESTSDPLKAVLGFRPKDEQRICRHYDPKLNGCFKGNNCRFAHEPFAPNGATKDVELARALPETIFDTTVHFEIGSIVGILITFINGPTEVYGQFLDGSPPLVWDKKDVPENKRTFKSKPRLLDIVLALYSDGCFYRAQIIDEFPSEYMIFYVDYGNTEFVPLSCLAPCENVDSFKPHRVFSFHIEGIVRSKNLTHQKTIECIEYLKSKLLNTEMNVHLVQRLPDGFLIRFLDDWKYIPEQLLQRNYAQVSQ
Take B4: the binding result in assay [5] is “no binding”; in assay [6], “binds”; in [7], “binds”; in assay [8], “binds”.

B5: Armitage (protein, UniProt Q6J5K9 1-1188)
chain: MFTYVSKFFTNPDRNREDILESLDRENSFLDQKLMEEKMDQQLKANPNEINGVLSNKIAELTHGLSEMDVSKESSCTARKGVITSLDGDRGVIDKDVLFETKVAEDIILDLHVGCVVEYLTFTTGEAMRVVKVKSILEHSWEDTSQKEIEKAVDNLKNEKPTFFNTETRSVLGLISQRLASSIDVETEYGQLTVELDNIEMNFIPTNGDRVRLECNIQLDDGFVDKQGEILEVTKLFPTRIQEGEKCIVERVYVHMVVLGPETYILKTDLPTGTDLHLGDIVLADLIECQYSKFTRRAIKITPLEKNFGATKLTQQSSMGSSGSGKAVTVTGVNRFITAELWQKESVSLKLTNNLNRTLRLESITVCNDSESQLSVVSPLESKEISSGSEITVTFEIHTQFLGEAIEKYVLNFDLLKVRRVFTVIVCKTKEEVAEAEKRMIAAEALMAPGRNSQERSRFYANQVWCNKVDVIPGQQIVTKRRFVALRLGCFEVPKELRQICLTSERRQEMIKAIEQHYSFLTEPLSIKTYMHRFRLLLHLEEIECFVNFRNYDRDRAHFLRDGEFLTLQIENLAERRPSLVIGDTLRVINPWSDPDSQTTKSYEGIIHKVLFDRILLKFHSSFQEKYNGEDYRLEFYFSRYSFRKQHHAISKIVGVMGEDFLFPSKVTKRENPQLDVYMKDDDMYLYDSKLEWYNQSLNSIQKRAVFNILRGEAENIPYVLFGPPGSGKTMTLIETLLQLVRNLPGARILVGTPSNSSADLVTKRLIDSKALLQGDFIRLVSYNQVEKDLIPPEIMSYCATSDVGAVGSCEDKMMVTESGLKLRCQAKFIGTHRITISTCTTLGNFLQLGFPAGHFTHVLFDEAGQCTEPETMVPIVMLTKKRSQVVLSGDPRQLQSIVTSRIASKMGFSISFLERLLERSPYRKDLQRFPESSGYNPLVLTKLLYNYRALPSIMSIYSRLFYDDELIPVLSEKDSRESRLLSKLRCVFESEKDIPQAHGTFFYGIIGENRQNNDSPSWFNPQEVREVFLMTIALYRANVTADQIGIITPYQKQVKMLRSMFIGTDVVMPKIGSVEEFQGQERDIILISTVRSSEEILRMDARFSLGFVRCSKRLNVAVSRARAMMIIFGNPHLLAVDECWRQLILFCVKNNAYFGCDLPQMVINQKDEVPVCLETFVPSLNTTDDLN
For the molecule B5, the binding result is listed as “no binding” in assay [9] and “binds” in assay [10].

B6: MBP-fused Mael C-terminus (aa 413-459) (domain or fragment, UniProt Q9VNS0 413-459)
chain: NSSKHHGIAASAQREWNARNLPTHSRLIRKVSDNDFSVNGADGKLKK
Regarding B6, in [11], the binding result is “binds”.
